Assay results reported in PubChem BioAssay AID493014 (National Center for Advancing Translational Sciences (NCATS), 2011).
The other results are listed elsewhere or left out. Further columns of the screen follow, without active or inactive calls. Most of these compounds were active or inconclusive in the main read-out, so they are no random draw. Potencies come from curve fits of mixed quality, noted in brackets.

Assay: qHTS Assay to Find Inhibitors of Chronic Active B-Cell Receptor Signaling
Settings: ABC-DLBCL IkBa-CBG/CBR reporter, luminescence ratio (green luciferase fused to IkBa over red control in TMD8 lymphoma cells), 4 h
Procedure, shortened: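 Doxycycline induced both beetle luciferases in TMD8 lymphoma cells; IKK-driven degradation limits the IkappaBalpha-fused green signal, while red luminescence normalises for cell number and nonspecific effects. Compounds tested up to 46 uM, 4 hrs.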

[1] = measured here: CBR red luminescence, cell number
[2] = measured here: IkBa-CBG green luminescence

Compound	AC50 [1]	AC50 [2]
CCc1cc(=O)oc2c(C)c(OCC(=O)N3CCCc4ccccc43)ccc12	29.1 µM [falling, single point]	
CCOc1ccc(NC(=O)c2cc3ccccc3cc2O)cc1	35.5 µM [falling, single point]	
Cc1cc(NC(=O)CSc2nc3cc4c(cc3c(=O)n2CCc2ccccc2)OCO4)no1	29.1 µM [rising, single point]	
CCn1c(=O)cc(OCC(=O)NCCc2ccc(OC)c(OC)c2)c2ccccc21	0.501 µM [rising, full curve, poor fit]	
Nc1c(C(=O)Nc2ccccc2)nnn1-c1ccc2c(c1)OCCO2	7.08 µM [falling, partial curve]	
COc1ccc(C(=O)N/N=C(\C)CC(=O)Nc2cccc(C(F)(F)F)c2)cc1	3.98 µM [falling, full curve]	
N#CC(c1ccc(Cl)cc1)c1ccc2c(C(F)(F)F)cc(C(F)(F)F)nc2n1 (configuration not stated)	32.6 µM [falling, single point]	
COc1cccc(-c2ccc3ncnc(NCc4cccc(F)c4)c3c2)c1	29.1 µM [falling, single point]	
CCC(=O)NC(=S)Nc1ccc(OC)cc1OC	32.6 µM [falling, single point]	
CC(C)n1cnc2c(Nc3cccc(Cl)c3)nc(NCCCO)nc21	14.1 µM [falling, single point]	
CCOC(=O)Cc1csc2nc(-c3ccccc3)nn12		2.82 µM [rising, partial curve, poor fit]
O=[N+]([O-])c1ccc(-c2nn(-c3ccccc3)cc2/C=N/n2c(-c3ccncc3)n[nH]c2=S)cc1	7.08 µM [rising, partial curve, poor fit]	
CCOc1ccc(NC(=O)C2C(c3ccccc3)C2(Cl)Cl)cc1 (configuration not stated)	35.5 µM [falling, single point]	
Cc1ccc(CCNC(=O)c2cc(S(=O)(=O)N3CCCCC3)c[nH]2)cc1	35.5 µM [falling, single point]	
NS(=O)(=O)c1ccc(CCNC(=O)c2cc(-c3ccc(Br)cc3)nc3ccccc23)cc1	0.562 µM [rising, full curve, poor fit]	
COc1cccc(C(=O)c2c[nH]c(C(=O)NCc3cccs3)c2)c1	0.461 µM [falling, full curve, poor fit]	
O=C(c1ccc(F)cc1)c1ccc(N2CCCCC2)cc1	3.55 µM [rising, single point]	
C=CCNC(=O)CSc1nc2sc(C)c(C)c2c(=O)[nH]1	32.6 µM [rising, partial curve, poor fit]	
c1csc(-c2nc(NCC3CCCO3)c3ccccc3n2)c1 (configuration not stated)	15.8 µM [falling, single point]	
COc1ccccc1CNC(=O)CSc1ccc(Br)cc1	4.11 µM [rising, full curve, poor fit]	10.3 µM [falling, partial curve]
Clc1cccc(-c2nc3nc4ccccc4nc3n2Cc2ccco2)c1	6.51 µM [falling, partial curve]	

Compounds listed so far containing bromine (2):
Compound	AC50 [1]	AC50 [2]
NS(=O)(=O)c1ccc(CCNC(=O)c2cc(-c3ccc(Br)cc3)nc3ccccc23)cc1	0.562 µM [rising, full curve, poor fit]	
COc1ccccc1CNC(=O)CSc1ccc(Br)cc1	4.11 µM [rising, full curve, poor fit]	10.3 µM [falling, partial curve]

Continuation.

Compound	AC50 [1]	AC50 [2]
CC(=O)Nc1ccc(OCC(O)Cn2c(C(C)C)nc3ccccc32)cc1 (configuration not stated)	17.8 µM [rising, partial curve, poor fit]	
CC(=O)Nc1ccc(NC(=O)C(C)OC(=O)/C(C#N)=C/c2ccc(N(C)C)cc2)cc1 (configuration not stated)	2.31 µM [rising, full curve]	
COc1ccc(C(C[N+](=O)[O-])c2c(C)cc3ccccn23)c(OC)c1 (configuration not stated)	2.24 µM [falling, full curve]	
C=CCNC(=S)N/N=C/c1cccc([N+](=O)[O-])c1		25.1 µM [falling, single point]
Cc1[nH]c2ccccc2c1CCN(Cc1cccnc1)C(=S)Nc1cccc(F)c1	6.31 µM [rising, partial curve, poor fit]	
O=C(COc1cccc2ccccc12)Nc1ccc(Cl)cc1C(=O)O	2.82 µM [falling, full curve]	
COc1ccc(/C=C/C(=O)Oc2ccc(C)c(C)c2)cc1OC	35.5 µM [rising, single point]	
CCOC(=O)c1sc(N(Cc2ccccc2)C(=O)CSc2ncn[nH]2)nc1C	5.8 µM [falling, partial curve, poor fit]	
O=C(NCc1ccccc1)NC1(C(=O)Nc2ccc3c(c2)OCCO3)CCCCC1	11.2 µM [rising, partial curve, poor fit]	
COc1ccc(NC(=O)Cn2nnc(-c3ccc(CN4CCOCC4)cc3)n2)c(OC)c1	35.5 µM [rising, single point]	
c1cc(-c2cccs2)nc(-c2cccs2)c1	4.61 µM [rising, single point]	
O=C(/C=C/c1ccco1)Nc1sc2c(c1C(=O)O)CCC2	0.708 µM [falling, full curve]	
Cc1ccc(C)n1-c1ccc(C(=O)Nc2ccccc2F)cc1	8.91 µM [falling, partial curve]	
CCOC(=O)C1CCCN(c2cc(C)nc3cc(-c4ccc(Cl)cc4)nn23)C1 (configuration not stated)	2.31 µM [rising, full curve, poor fit]	
Cc1ccc(C)c(NC(=O)CSc2nnc(NC(=O)C3CC3)s2)c1	0.794 µM [rising, full curve, poor fit]	
CCOC(=O)N1CCC(NC(=O)c2cn(-c3ccc(OC)cc3)c(=O)c3ccccc23)CC1	18.4 µM [falling, single point]	
O=c1oc2ccccc2c(O)c1C=NCc1ccccn1	11.6 µM [falling, partial curve, poor fit]	
Cc1cc(C)c(C(=O)/C=C/c2cccc3ccccc23)c(=O)[nH]1	4.11 µM [falling, full curve]	
COc1ccc2c(c1)CCC1C2=NN(/C(C)=C\C(C)=O)C1c1ccc(F)cc1 (configuration not stated)	35.5 µM [falling, single point]	
COc1cc(NC(=O)CSc2nc3ccccc3c(=O)n2C)ccc1NC(=O)c1ccco1	8.91 µM [falling, partial curve]	
